# Source: PubChem BioAssay AID1508600 (Functional Genomics Laboratory (NCATS/FGL), 2020)
# The campaign covered roughly 53,000 sequences. About 3,700 (7%) were called active.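 The calls were made as follows: active = gene knockdowns whose robust z-score for IL-1 alpha signal is at least 2 or at most -2, so actives lie on both sides; inactive = the rest.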 The list shows a part of the results.
# Test: Components of the Cytosolic LPS Sensing Pathway: Gene Identification via Genome-wide siRNA Screen;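 also: robust z of the log signal after scaling to non-targeting control siRNA wells of the plate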
# Conditions: RAW264.7 macrophages, IL-1a HTRF, actives lie on both sides, screened at 100 nM (by protocol), cells primed 5 h with Pam3CSK4 first
# Outline: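 RAW264.7 mouse macrophages reverse-transfected with single siRNAs (100 nM final) for 48h, primed with Pam3CSK4 for 5 hours, then transfected with LipidA for 24 hour. Supernatant IL-1a read by HTRF; values normalized to negative-control median, log-transformed robust z-scores.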
row,Sequence,z-score
1,GGAAUUUCUGCGCACCUAUTT against Ctnnbip1,inactive: 1.19
2,GGGACAACCUGGAUGACAUTT against Coq6,inactive: -0.0644
3,GCAGGUGAGAAAGUAUAAGTT against Mro,inactive: -1.09
4,GGAUCAAAAGGUAAAGAGATT against Rbbp5,inactive: 1.63
5,GCACUUAACAGAGAUACAATT against Cldn12,inactive: -0.408
6,CCAAGAGAUGCUAGCUAAUTT against Platr28,inactive: -0.495
7,GGAAAACAUCCCUUUCGCATT against Septin1,inactive: 1.04
8,GGUAGAAUUGAAUUCAAUCTT against Csrnp3,inactive: -0.812
9,GGAGACAAAGAAGAGAAAGTT against Ddx24,inactive: 0.642
10,GGUCAAAGUGUGUUAAGUUTT against Tmem209,inactive: -1.71
11,GGGCUAUGCAAAUUUACAATT against Poglut2,inactive: -0.607
12,CCCAAUACAAAUCAGUCUATT against Perm1,inactive: 0.86
13,CGGACUAUAUAGAGAGGGATT against Purg,inactive: -0.819
14,GCACUCUUUCCAAAAUAGUTT against Klf12,inactive: 0.0398
15,GGGAAAGUAAUUGAUAAACTT against Mtrr,inactive: 0.59
16,CCUACAUCAGGUCAGCAAGTT against Mrto4,inactive: 1.26
17,CCAGUAUGAAAGCUUAAAGTT against Ipo13,inactive: 0.159
18,GGCUUCCUACCUAAGGCUUTT against Bora,inactive: -0.924
19,GGACAGGCAGCUAACACUATT against Foxk1,inactive: 0.221
20,GGAGUCCACCCUUCAUCUGTT against Rps27a,inactive: 0.355
21,GCUCCAUGGAAUAAUUAAATT against Gm4425,inactive: -0.895
22,GCAUUGUAAGUUGAAAACATT against Rbm43,inactive: 1.53
23,GUUAUGGAGCAAUGUCUAUTT against Olfr1248,inactive: 0.52
24,GGCUUCAUUUCCUAUAAUGTT against Tcaf1,inactive: -0.601
25,GGAUGGUCGAAACAAUAACTT against Stk32b,active: 2.16
26,ACCUGAAUUUGGUGACUGATT against Rdh18-ps,inactive: 0.368
27,GGAAGAUUAAGCGAGAUAUTT against Rnf146,inactive: -0.229

row,Sequence,z-score
1,GAAGGGACUUCAAAGUUGATT against Ndufb10,active: 3.3
2,GGCAUACACCACUUAGUAATT against Sumo2,inactive: -0.79
3,GCAACGAGAACUCUUUUUATT against Spen,inactive: 1.4
4,GGACAUUUUUGGGAAAGAUTT against Rpap3,inactive: -0.0699
5,GGGUUGCUACUCACAAUGUTT against Syngr2,inactive: 0.244
6,GGAGAUGAAGAAGAUAUUGTT against Smoc2,inactive: -0.764
7,CCCUUUGUUCAAUGUCCCATT against Gpr137c,inactive: -0.707
8,GGAUAAUUGAUCAUAGAGGTT against Ufm1,inactive: -0.495
9,GCAGUCUUGGAAAUAACGATT against Spaca1,inactive: 1.3
10,GGAGCUGAUCGAGAAGAUCTT against Xrcc3,inactive: -1.8
11,GGAACUUUAUGUGGAAAGATT against Vmn1r235,inactive: -0.449
12,GCCAUCGAUGUACUGAGCUTT against Psme2,inactive: 0.525
13,GGAUGUGGAUGAAUGCAGATT against Masp2,inactive: -0.106
14,CCUCGCUGUAUCUUAACAUTT against Dppa2,inactive: -0.742
15,GGAAGAGCCAUCGUUUGCCTT against Denn2b,inactive: -0.36
16,GGUUUACCAUGCAUAUUAUTT against Txnrd2,inactive: -0.0102
17,GGACAAUCAACUAAAGCUCTT against Stab2,inactive: 1.14
18,GGUCAUGGAUGUCACAGAGTT against Mink1,active: -2.17
19,GCUAAUGGUAUAAAUGGAUTT against Serinc5,inactive: 0.925
20,GCCUGAGAAGAUAGACUGATT against Pigs,inactive: 0.114
21,CGUGGUUGUACAUAUUUGUTT against Trip10,inactive: 0.39
22,GGUGCUCAAAUCCUCUUGATT against Ctps,inactive: -0.0545
23,GGGUGAUGUCACUGUCAUCTT against Gabrg2,inactive: 0.434
24,CCAGGAUCACCAAAAUGGATT against Slit3,inactive: -1.18
25,GGUGUUUAAUAAUGUUGUCTT against Olfr976,inactive: -0.27
26,GGAAGGAAGUGGGUUACUUTT against Olfr156,inactive: 0.309
27,CCCUUCCAACAAUUAUACUTT against Cltrn,inactive: 0.0851

# A different layout for some results above:
row | Sequence | z-score
2 | GGCAUACACCACUUAGUAATT against Sumo2 | inactive: -0.79
3 | GCAACGAGAACUCUUUUUATT against Spen | inactive: 1.4
5 | GGGUUGCUACUCACAAUGUTT against Syngr2 | inactive: 0.244
9 | GCAGUCUUGGAAAUAACGATT against Spaca1 | inactive: 1.3
10 | GGAGCUGAUCGAGAAGAUCTT against Xrcc3 | inactive: -1.8
12 | GCCAUCGAUGUACUGAGCUTT against Psme2 | inactive: 0.525
13 | GGAUGUGGAUGAAUGCAGATT against Masp2 | inactive: -0.106
15 | GGAAGAGCCAUCGUUUGCCTT against Denn2b | inactive: -0.36
17 | GGACAAUCAACUAAAGCUCTT against Stab2 | inactive: 1.14
19 | GCUAAUGGUAUAAAUGGAUTT against Serinc5 | inactive: 0.925
24 | CCAGGAUCACCAAAAUGGATT against Slit3 | inactive: -1.18
25 | GGUGUUUAAUAAUGUUGUCTT against Olfr976 | inactive: -0.27
26 | GGAAGGAAGUGGGUUACUUTT against Olfr156 | inactive: 0.309
27 | CCCUUCCAACAAUUAUACUTT against Cltrn | inactive: 0.0851
